Data as given in PubChem BioAssay AID1259308 (NCATS, 2017).

Test: 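Candidate targets for better recombinant protein yield in mammalian cells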 (primary screen)
Cells: human HEK293 embryonic kidney cells stably expressing firefly luciferase (HEK-CMV-Luc2-Hygro)
Knock-down reagent: single siRNA against human genes, 0.8 pmol siRNA per well
Time to read-out: 72 h
Detection: 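Luciferase light (ONE-Glo) measured on one replicate plate set and viability (CellTiter-Glo) on the other, scaled to a negative control siRNA, with robust z-scores and luciferase per cell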
Reading the numbers: total luciferase, z-score and total luciferase, % of control: higher = more reporter protein produced; luciferase per cell, z-score: higher = more reporter output per viable cell; viable cells, % of control: higher = more viable cells
Active means: 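Active when the median/MAD z-score for overall luciferase is greater than 3; a gene was taken forward for validation with new siRNAs if at least two of its three siRNAs passed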
Meaning of the calls: active = raised luciferase; inactive = no rise
The deposit covers about 59,000 reagents; this is an unselected part. Of all reagents, about 1,510 (2.6%) were called active. 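Calls use total luciferase alone and ignore viability, so some active siRNAs may act by altering cell number.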 Unmarked entries are inactive. No sequences are given here.

The opening 4 records, to show the layout:
Gene	PubChem SID	total luciferase, z-score	total luciferase, % of control	luciferase per cell, z-score	viable cells, % of control
PHACTR3 (phosphatase and actin regulator 3)	SID160755352	1.08	103	0.0398	114
PHACTR3 (phosphatase and actin regulator 3)	SID160755354	1.1	104	1.01	89
PHACTR3 (phosphatase and actin regulator 3)	SID160755355	0.58	93.4	0.505	91.4
DALRD3 (DALR anticodon binding domain containing 3)	SID160743071	1.34	108	1.4	83.9

The list itself, from the first entry:
Gene	PubChem SID	total luciferase, z-score	total luciferase, % of control	luciferase per cell, z-score	viable cells, % of control
PHACTR3 (phosphatase and actin regulator 3)	SID160755352	1.08	103	0.0398	114
PHACTR3 (phosphatase and actin regulator 3)	SID160755354	1.1	104	1.01	89
PHACTR3 (phosphatase and actin regulator 3)	SID160755355	0.58	93.4	0.505	91.4
DALRD3 (DALR anticodon binding domain containing 3)	SID160743071	1.34	108	1.4	83.9
DALRD3 (DALR anticodon binding domain containing 3)	SID160743072	-0.117	79.6	-0.0128	89.2
DALRD3 (DALR anticodon binding domain containing 3)	SID160743073	1.05	103	0.959	89.1
LOC730098	SID160734707	-1.95	43.1	-2.78	100
LOC730098	SID160773504	0.456	91	0.242	95.4
LOC730098	SID160773505	-1.05	61	-1.7	107
OR5T1 (olfactory receptor family 5 subfamily T member 1)	SID160733251	0.0941	83.8	-0.6	110
OR5T1 (olfactory receptor family 5 subfamily T member 1)	SID160766412	-0.381	74.3	0.0142	82.7
OR5T1 (olfactory receptor family 5 subfamily T member 1)	SID160766413	-0.279	76.3	0.497	74.8
RCCD1 (RCC1 domain containing 1)	SID160735182	-0.437	73.2	-0.417	91.3
RCCD1 (RCC1 domain containing 1)	SID160753977	-0.829	65.4	-0.361	80.4
RCCD1 (RCC1 domain containing 1)	SID160753978	-0.254	76.8	-0.371	94.7
MORN2 (MORN repeat containing 2)	SID160773330	-0.00558	81.8	0.334	83.7
MORN2 (MORN repeat containing 2)	SID160773331	1.02	102	1.41	78.8
MORN2 (MORN repeat containing 2)	SID160773332	0.56	93	0.541	90.1
HTN1 (histatin 1)	SID160733064	1	102	0.317	105
HTN1 (histatin 1)	SID160775432	0.0694	83.3	-0.0168	93.5
HTN1 (histatin 1)	SID160775433	-1.42	53.7	-1.22	82.8
TMEM175 (transmembrane protein 175)	SID160752058	1.83	118	1.95	79.1
TMEM175 (transmembrane protein 175)	SID160752060	0.169	85.2	-0.179	99.8
TMEM175 (transmembrane protein 175)	SID160752061	0.503	91.9	1.14	76.1
DHX9 (DExH-box helicase 9)	SID160753493	2.44	130	1.7	93.2
DHX9 (DExH-box helicase 9)	SID160753505	-0.378	74.4	-0.729	101
DHX9 (DExH-box helicase 9)	SID160753516	1.24	107	0.627	101
CTXN3 (cortexin 3)	SID160768379	0.76	97	0.81	87.6
CTXN3 (cortexin 3)	SID160768380	-0.266	76.6	0.593	73.2
CTXN3 (cortexin 3)	SID160768381	-0.619	69.6	-0.205	82
RPH3AL (rabphilin 3A like (without C2 domains))	SID160722361	0.103	83.9	0.405	84.3
RPH3AL (rabphilin 3A like (without C2 domains))	SID160722362	0.774	97.3	0.604	92.7
RPH3AL (rabphilin 3A like (without C2 domains))	SID160722364	-0.253	76.9	0.374	77.8
CRPPA (CDP-L-ribitol pyrophosphorylase A)	SID160773291	0.158	85	0.574	81.7
CRPPA (CDP-L-ribitol pyrophosphorylase A)	SID160773292	0.917	100	7.4	16
CRPPA (CDP-L-ribitol pyrophosphorylase A)	SID160773293	0.00946	82.1	-0.422	102
EHF (ETS homologous factor)	SID160737938	-0.364	74.6	-0.868	105
EHF (ETS homologous factor)	SID160737939	-0.885	64.3	-0.917	91.5
EHF (ETS homologous factor)	SID160737940	-1.36	54.7	-1.92	101
